The full ranking holds about 1,900 compounds; the median of “excess over highest single agent (ExcessHSA) synergy score, 6x6 matrix” is about -83, and the lowest 2% start at about -370. The list shows a part of the results.
Each compound was assayed on NCI-H446 (assay: excess over highest single agent (ExcessHSA) synergy score, 6x6 matrix; higher = less synergy (more negative = stronger synergy)). Conditions: 72 h; CellTiter-Glo viability.
In the case of `COC(=O)Nc1nc2cc(C(=O)c3ccccc3)ccc2[nH]1` + Cc1sc2c(c1C)C(c1ccc(Cl)cc1)=N[C@@H](CC(=O)OC(C)(C)C)c1nnc(C)n1-2 [NCGC00250412-19], the “excess over highest single agent” value is reported as -202. With `O=C1[C@H](Cc2ccc(O)cc2)N2C(=O)CCN(C(=O)NCc3ccccc3)[C@H]2CN1Cc1cccc2ccccc12` + Cc1sc2c(c1C)C(c1ccc(Cl)cc1)=N[C@@H](CC(=O)OC(C)(C)C)c1nnc(C)n1-2 [NCGC00250412-19] the “excess over highest single agent” value was -294. In the case of `CC1=C(O)C(=O)C=C2C1=CC=C1[C@@]2(C)CC[C@@]2(C)[C@@H]3C[C@](C)(C(=O)O)CC[C@]3(C)CC[C@]12C` + Cc1sc2c(c1C)C(c1ccc(Cl)cc1)=N[C@@H](CC(=O)OC(C)(C)C)c1nnc(C)n1-2 [NCGC00250412-19], the “excess over highest single agent” value is reported as -208. With `COc1cccc([C@@H](C)NCCCc2ccccc2Cl)c1` + Cc1sc2c(c1C)C(c1ccc(Cl)cc1)=N[C@@H](CC(=O)OC(C)(C)C)c1nnc(C)n1-2 [NCGC00250412-19] the “excess over highest single agent” value was -83.7. In the case of `CC(C)OC(=O)[C@H](C)N[P@](=O)(OC[C@H]1O[C@@H](n2ccc(=O)[nH]c2=O)[C@](C)(F)[C@@H]1O)Oc1ccccc1` + Cc1sc2c(c1C)C(c1ccc(Cl)cc1)=N[C@@H](CC(=O)OC(C)(C)C)c1nnc(C)n1-2 [NCGC00250412-19], the “excess over highest single agent” value is reported as -64.6. `Cc1cnc(Nc2cccc(CN3CCOCC3)c2)nc1Nc1cccc(S(=O)(=O)NC(C)(C)C)c1` + Cc1sc2c(c1C)C(c1ccc(Cl)cc1)=N[C@@H](CC(=O)OC(C)(C)C)c1nnc(C)n1-2 [NCGC00250412-19] was tested, and the “excess over highest single agent” value was 108. With `CC1(C)S[C@@H]2[C@H](NC(=O)[C@H](N)c3ccc(O)cc3)C(=O)N2[C@H]1C(=O)O` + Cc1sc2c(c1C)C(c1ccc(Cl)cc1)=N[C@@H](CC(=O)OC(C)(C)C)c1nnc(C)n1-2 [NCGC00250412-19] the “excess over highest single agent” value was -55.3. In the case of `Cc1cc(C(=O)NOCCO)c(Nc2ccc(I)cc2F)n(C)c1=O` + Cc1sc2c(c1C)C(c1ccc(Cl)cc1)=N[C@@H](CC(=O)OC(C)(C)C)c1nnc(C)n1-2 [NCGC00250412-19], the “excess over highest single agent” value is reported as -340. In the case of `COc1cccc2c1C(=O)c1c(O)c3c(c(O)c1C2=O)C[C@@](O)(C(=O)CO)C[C@@H]3O[C@H]1C[C@H](N)[C@H](O)[C@H](C)O1` + Cc1sc2c(c1C)C(c1ccc(Cl)cc1)=N[C@@H](CC(=O)OC(C)(C)C)c1nnc(C)n1-2 [NCGC00250412-19], the “excess over highest single agent” value is reported as -176. In the case of `Nc1nc(Cl)nc2c1ncn2[C@H]1C[C@H](O)[C@@H](CO)O1` + Cc1sc2c(c1C)C(c1ccc(Cl)cc1)=N[C@@H](CC(=O)OC(C)(C)C)c1nnc(C)n1-2 [NCGC00250412-19], the “excess over highest single agent” value is reported as -73.1. With `CN[C@@H]1[C@H](O[C@H]2[C@H](O[C@H]3[C@H](O)[C@@H](O)[C@H](N=C(N)N)[C@@H](O)[C@@H]3N=C(N)N)O[C@@H](C)[C@]2(O)C=O)O[C@@H](CO)[C@H](O)[C@H]1O` + Cc1sc2c(c1C)C(c1ccc(Cl)cc1)=N[C@@H](CC(=O)OC(C)(C)C)c1nnc(C)n1-2 [NCGC00250412-19] the “excess over highest single agent” value was -60.5. For `CCOC(=O)c1c(/C(C#N)=C\N)c2ccc(Cl)c(Cl)c2n1C` + Cc1sc2c(c1C)C(c1ccc(Cl)cc1)=N[C@@H](CC(=O)OC(C)(C)C)c1nnc(C)n1-2 [NCGC00250412-19], the “excess over highest single agent” value was -161. With `C[C@H]1CCC/C=C/[C@@H]2C[C@H](O)C[C@H]2[C@H](O)/C=C/C(=O)O1` + Cc1sc2c(c1C)C(c1ccc(Cl)cc1)=N[C@@H](CC(=O)OC(C)(C)C)c1nnc(C)n1-2 [NCGC00250412-19] the “excess over highest single agent” value was -30.5. `Fc1ccc(C(c2ccc(F)cc2)N2CCN(C/C=C/c3ccccc3)CC2)cc1` + Cc1sc2c(c1C)C(c1ccc(Cl)cc1)=N[C@@H](CC(=O)OC(C)(C)C)c1nnc(C)n1-2 [NCGC00250412-19] was tested, and the “excess over highest single agent” value was -302. In the case of `O=c1cc(-c2cccc3c2Sc2ccccc2S3)oc(N2CCOCC2)c1` + Cc1sc2c(c1C)C(c1ccc(Cl)cc1)=N[C@@H](CC(=O)OC(C)(C)C)c1nnc(C)n1-2 [NCGC00250412-19], the “excess over highest single agent” value is reported as -45. `O=C(O)c1cc(O)c2c(c1)C(=O)c1cccc(O)c1C2=O` + Cc1sc2c(c1C)C(c1ccc(Cl)cc1)=N[C@@H](CC(=O)OC(C)(C)C)c1nnc(C)n1-2 [NCGC00250412-19] was tested, and the “excess over highest single agent” value was -65.1. `N#Cc1c(O)c2c(-c3ccc(-c4ccccc4O)cc3)csc2[nH]c1=O` + Cc1sc2c(c1C)C(c1ccc(Cl)cc1)=N[C@@H](CC(=O)OC(C)(C)C)c1nnc(C)n1-2 [NCGC00250412-19] was tested, and the “excess over highest single agent” value was -203. In the case of `Cn1c(NCCN(CCO)CCCc2ccc([N+](=O)[O-])cc2)cc(=O)n(C)c1=O` + Cc1sc2c(c1C)C(c1ccc(Cl)cc1)=N[C@@H](CC(=O)OC(C)(C)C)c1nnc(C)n1-2 [NCGC00250412-19], the “excess over highest single agent” value is reported as -179. With `N=C(N)c1ccc(OCCCCCOc2ccc(C(=N)N)cc2)cc1` + Cc1sc2c(c1C)C(c1ccc(Cl)cc1)=N[C@@H](CC(=O)OC(C)(C)C)c1nnc(C)n1-2 [NCGC00250412-19] the “excess over highest single agent” value was -62.8. With `CCC(=O)N1CCN(c2ccc(-n3c(=O)ccc4cnc5ccc(-c6cnc7ccccc7c6)cc5c43)cc2C(F)(F)F)CC1` + Cc1sc2c(c1C)C(c1ccc(Cl)cc1)=N[C@@H](CC(=O)OC(C)(C)C)c1nnc(C)n1-2 [NCGC00250412-19] the “excess over highest single agent” value was -246. In the case of `CO/N=C(\C(=O)N[C@@H]1C(=O)N2C(C(=O)OCOC(=O)C(C)(C)C)=C(/C=C\c3scnc3C)CS[C@H]12)c1csc(N)n1` + Cc1sc2c(c1C)C(c1ccc(Cl)cc1)=N[C@@H](CC(=O)OC(C)(C)C)c1nnc(C)n1-2 [NCGC00250412-19], the “excess over highest single agent” value is reported as -94. For `c1ccc2c(Cc3c[nH]c4ccccc34)c[nH]c2c1` + Cc1sc2c(c1C)C(c1ccc(Cl)cc1)=N[C@@H](CC(=O)OC(C)(C)C)c1nnc(C)n1-2 [NCGC00250412-19], the “excess over highest single agent” value was -83.3. For `O[C@@H](COc1cccc2ncccc12)CN1CCN([C@@H]2c3ccccc3[C@@H]3[C@H](c4ccccc42)C3(F)F)CC1` + Cc1sc2c(c1C)C(c1ccc(Cl)cc1)=N[C@@H](CC(=O)OC(C)(C)C)c1nnc(C)n1-2 [NCGC00250412-19], the “excess over highest single agent” value was -41.1. With `Cn1cnc(-c2cc3nccc(Oc4ccc(NC(=S)NC(=O)Cc5ccccc5)cc4F)c3s2)c1` + Cc1sc2c(c1C)C(c1ccc(Cl)cc1)=N[C@@H](CC(=O)OC(C)(C)C)c1nnc(C)n1-2 [NCGC00250412-19] the “excess over highest single agent” value was -36.3. `CCCc1cc(=O)[nH]c(=S)[nH]1` + Cc1sc2c(c1C)C(c1ccc(Cl)cc1)=N[C@@H](CC(=O)OC(C)(C)C)c1nnc(C)n1-2 [NCGC00250412-19] was tested, and the “excess over highest single agent” value was 116. For `COc1ccc(CCN(C)CCCC(C#N)(c2ccc(OC)c(OC)c2)C(C)C)cc1OC` (stereo unspecified) + Cc1sc2c(c1C)C(c1ccc(Cl)cc1)=N[C@@H](CC(=O)OC(C)(C)C)c1nnc(C)n1-2 [NCGC00250412-19], the “excess over highest single agent” value was -121. `C=C1C(=O)O[C@@H]2/C=C(\C)CC/C=C(\C)CC[C@@H]12` + Cc1sc2c(c1C)C(c1ccc(Cl)cc1)=N[C@@H](CC(=O)OC(C)(C)C)c1nnc(C)n1-2 [NCGC00250412-19] was tested, and the “excess over highest single agent” value was -251. With `CCOC(=O)C1=C[C@@H](OC(CC)CC)[C@H](NC(C)=O)[C@@H](N)C1` + Cc1sc2c(c1C)C(c1ccc(Cl)cc1)=N[C@@H](CC(=O)OC(C)(C)C)c1nnc(C)n1-2 [NCGC00250412-19] the “excess over highest single agent” value was -27.5. For `C[C@]12CCC(=O)C=C1CC[C@@H]1[C@@H]2[C@@H](O)C[C@@]2(C)[C@H]1CC[C@]2(O)C(=O)CO` + Cc1sc2c(c1C)C(c1ccc(Cl)cc1)=N[C@@H](CC(=O)OC(C)(C)C)c1nnc(C)n1-2 [NCGC00250412-19], the “excess over highest single agent” value was -51.3. With `O=C(CCc1ccc(O)cc1)c1c(O)cc(O)cc1O[C@@H]1O[C@H](CO)[C@@H](O)[C@H](O)[C@H]1O` + Cc1sc2c(c1C)C(c1ccc(Cl)cc1)=N[C@@H](CC(=O)OC(C)(C)C)c1nnc(C)n1-2 [NCGC00250412-19] the “excess over highest single agent” value was -20.4. `Oc1ncnc2[nH]ncc12` + Cc1sc2c(c1C)C(c1ccc(Cl)cc1)=N[C@@H](CC(=O)OC(C)(C)C)c1nnc(C)n1-2 [NCGC00250412-19] was tested, and the “excess over highest single agent” value was -18.8. `COc1cccc2c1[C@]13CCN(CC4CC4)[C@H](C2)[C@]1(OC)CCC(=O)C3` + Cc1sc2c(c1C)C(c1ccc(Cl)cc1)=N[C@@H](CC(=O)OC(C)(C)C)c1nnc(C)n1-2 [NCGC00250412-19] was tested, and the “excess over highest single agent” value was -55. `COc1cc2c(N3CCN(C(=O)Nc4ccc(OC(C)C)cc4)CC3)ncnc2cc1OCCCN1CCCCC1` + Cc1sc2c(c1C)C(c1ccc(Cl)cc1)=N[C@@H](CC(=O)OC(C)(C)C)c1nnc(C)n1-2 [NCGC00250412-19] was tested, and the “excess over highest single agent” value was 20.7. In the case of `Cc1cc(O)c2c(c1)C(=O)c1cccc(O)c1C2=O` + Cc1sc2c(c1C)C(c1ccc(Cl)cc1)=N[C@@H](CC(=O)OC(C)(C)C)c1nnc(C)n1-2 [NCGC00250412-19], the “excess over highest single agent” value is reported as -314. `CC(C(=O)O)c1ccc(-c2ccccc2)c(F)c1` (stereo unspecified) + Cc1sc2c(c1C)C(c1ccc(Cl)cc1)=N[C@@H](CC(=O)OC(C)(C)C)c1nnc(C)n1-2 [NCGC00250412-19] was tested, and the “excess over highest single agent” value was 5.19. In the case of `C[C@H]1O[C@@H](O[C@H]2[C@@H](O)C[C@H](O[C@H]3[C@@H](O)C[C@H](O[C@H]4CC[C@@]5(C)[C@H](CC[C@@H]6[C@@H]5C[C@@H](O)[C@]5(C)[C@@H](C7=CC(=O)OC7)CC[C@]65O)C4)O[C@@H]3C)O[C@@H]2C)C[C@H](O)[C@@H]1O` + Cc1sc2c(c1C)C(c1ccc(Cl)cc1)=N[C@@H](CC(=O)OC(C)(C)C)c1nnc(C)n1-2 [NCGC00250412-19], the “excess over highest single agent” value is reported as -83.2.

— the supplement of paper PMC10077471
